{"source": "paper PMC8854749", "about": "“Celastrol Inhibits Canine Mammary Tumor Cells by Inducing Apoptosis via the Caspase Pathway” (Frontiers in Veterinary Science, 2022)", "key": {"CMT-7364 cells": {"tested_on": "CMT-7364 cells", "assay": "qPCR of Caspase-3, Caspase-9, p21, p27 mRNA (2^-ΔΔCt, β-actin reference)", "type": "cell-based, canine", "details": "CMT-7364, 0.9 μM celastrol, SYBR", "method": "(§1) After CMT-7364 and CIPp cells were treated with or without 0.9 μM celastrol for 24 h, TRIzol was used to isolate the total RNA of the cells. The RNA was then reverse transcribed into cDNA using a reverse transcriptase kit. A 20 μl reaction system was prepared according to the manufacturer's instructions and tested in the Real-Time PCR System (Long Gene Q1000, China). The results were analyzed by the 2^−ΔΔCt method: ΔΔCt = (target gene Ct of the experimental group-internal reference gene Ct of the experimental group)-(target gene Ct of the control group-internal reference gene Ct of the control group), β-actin was the internal reference gene."}, "CIPp cells": {"tested_on": "CIPp cells", "assay": "qPCR of Caspase-3, Caspase-9, p21, p27 mRNA (2^-ΔΔCt, β-actin reference)", "type": "cell-based, canine", "details": "0.9 μM celastrol, SYBR", "method": "as §1"}}, "note": "“And” between values parts separate entries of the source, which are not always exact repeats. Identical values can stand only once."}
{"smiles": "CC1=C(O)C(=O)C=C2C1=CC=C1[C@@]2(C)CC[C@@]2(C)[C@@H]3C[C@](C)(C(=O)O)CC[C@]3(C)CC[C@]12C", "note": "[celastrol, Celastrol]", "values": [{"measurement": "Ct average, caspase-3", "setting": "CMT-7364 cells", "result": 22.53}, {"measurement": "Ct average, caspase-9", "setting": "CMT-7364 cells", "result": 22.29}, {"measurement": "Ct average, p-21", "setting": "CMT-7364 cells", "result": 23.53}, {"measurement": "Ct average, p-27", "setting": "CMT-7364 cells", "result": 25.20}, {"measurement": "Ct average, β-actin", "setting": "CMT-7364 cells", "result": 21.20}, {"measurement": "ΔCt average, p-21", "setting": "CMT-7364 cells", "result": 2.08}, {"measurement": "ΔCt average, p-27", "setting": "CMT-7364 cells", "result": 2.10}, {"measurement": "ΔCt average, β-actin", "setting": "CMT-7364 cells", "result": -0.90}, {"measurement": "ΔΔCt, caspase-9", "setting": "CMT-7364 cells", "result": 0.00}, {"measurement": "ΔΔCt, p-21", "setting": "CMT-7364 cells", "result": 0.00}, {"measurement": "ΔΔCt, p-27", "setting": "CMT-7364 cells", "result": 0.00}, {"measurement": "ΔΔCt, β-actin", "setting": "CMT-7364 cells", "result": 0.00}, {"measurement": "Ct, caspase-3", "setting": "CMT-7364 cells; single well", "result": "22.85 and 22.21"}, {"measurement": "Ct, caspase-9", "setting": "CMT-7364 cells; single well", "result": "22.04 and 22.53"}, {"measurement": "Ct, p-21", "setting": "CMT-7364 cells; single well", "result": "23.67 and 23.39"}, {"measurement": "Ct, p-27", "setting": "CMT-7364 cells; single well", "result": "25.00 and 25.40"}, {"measurement": "Ct, β-actin", "setting": "CMT-7364 cells; single well", "result": "21.38 and 21.03"}, {"measurement": "ΔΔCt, caspase-9", "setting": "CIPp cells", "result": -0.39}, {"measurement": "ΔΔCt, p-21", "setting": "CIPp cells", "result": -4.46}, {"measurement": "ΔΔCt, p-27", "setting": "CIPp cells", "result": -1.36}, {"measurement": "ΔΔCt, β-actin", "setting": "CIPp cells", "result": 1.80}, {"measurement": "Ct, caspase-3", "setting": "CIPp cells; single well", "result": "22.43 and 23.08"}, {"measurement": "Ct, caspase-9", "setting": "CIPp cells; single well", "result": "23.01 and 23.08"}, {"measurement": "Ct, p-27", "setting": "CIPp cells; single well", "result": "24.00 and 23.99"}, {"measurement": "Ct, β-actin", "setting": "CIPp cells; single well", "result": "24.06 and 24.25"}]}
